# Test results taken from PubChem BioAssay AID248 (DTP/NCI, 2004).
# The list does not hold the whole screen: it is rich in T/C values a quarter to a half above the control, in often repeated tests (any T/C) and in doses without a T/C. Other doses and runs of a compound stand elsewhere. T/C gives the treated animals as a percentage of the vehicle group. Some entries give survivors of the animals treated and no T/C: the source files T/C as zero there, which appears to mark a toxic dose or a test without result, not a measured value. Some doses without a T/C left all or most animals alive at the check, yet need not have been tolerated: survival well below the control is almost never listed, so the zero probably covers shortened survival too. Survivors were counted at the toxicity check, usually on the fifth day, unless a day is given; later deaths do not show. Schedule codes are those of the source, taken here to give the interval after Q, in days (D) or hours (H), and the number of doses after X. Some schedules carry Z or #; the key to these is not given.
# Tested on: L1210 leukemia ip in BDF1 mice, survival T/C
# Assay: NCI In Vivo Anticancer Drug Screen. Data for tumor model L1210 Leukemia (intraperitoneal) in B6D2F1 (BDF1) mice
# Conditions: T/C endpoint: mean survival time, higher T/C = longer survival
# [1] = dose: 400.0 mg/kg/injection, schedule: Q01DX001 (ip), vehicle: saline
compound,measurement,setting,value
O=C(O)Cc1ccc2c(c1)OCO2.[Ag],survivor count,"dose: 75.0 mg/kg/injection, schedule: Q01DX001 (ip), vehicle: steroid suspending solution",0 of 6
same,survivor count,"dose: 150.0 mg/kg/injection, schedule: Q01DX001 (ip), vehicle: steroid suspending solution",0 of 6
same,survivor count,"dose: 300.0 mg/kg/injection, schedule: Q01DX001 (ip), vehicle: steroid suspending solution",0 of 6
N=C(N=Nc1c(O)[nH]c2ccccc12)N[N+](=O)[O-],survivor count,"dose: 50.0 mg/kg/injection, schedule: Q04DX003 (ip), vehicle: Klucel (hydroxypropylcellulose) (HPC)",3 of 6
same,survivor count,"dose: 100.0 mg/kg/injection, schedule: Q04DX003 (ip), vehicle: Klucel (hydroxypropylcellulose) (HPC)",1 of 6
same,survivor count,"dose: 200.0 mg/kg/injection, schedule: Q04DX003 (ip), vehicle: Klucel (hydroxypropylcellulose) (HPC)",2 of 6
same,survivor count,"dose: 400.0 mg/kg/injection, schedule: Q04DX003 (ip), vehicle: Klucel (hydroxypropylcellulose) (HPC)",0 of 6
COc1ccc(/C=N/N=C(N)N)cc1,survivor count,"dose: 120.0 mg/kg/injection, schedule: Q01DX Z (ip), vehicle: saline",0 of 6
same,survivor count,"dose: 240.0 mg/kg/injection, schedule: Q01DX Z (oral), vehicle: other",0 of 6
Nc1nc(N)n(Cc2ccc3c(c2)OCO3)n1,survivor count,"dose: 100.0 mg/kg/injection, schedule: Q01DX009 (ip), vehicle: saline with Tween-80",6 of 6
CCOc1ccc(/C=N\NC(=O)CCCC(=O)N/N=C/c2ccc(OCC)c(OCC)c2)cc1OCC,survivor count,[1],4 of 4
C=C[CH2][Sn]([CH2]C=C)([CH2]CCC)[CH2]CCC,survivor count,"dose: 100.0 mg/kg/injection, schedule: Q04DX002 (ip), vehicle: saline with Tween-80",0 of 3
same,survivor count,"dose: 200.0 mg/kg/injection, schedule: Q04DX002 (ip), vehicle: saline with Tween-80",0 of 3
same,survivor count,"dose: 400.0 mg/kg/injection, schedule: Q04DX002 (ip), vehicle: saline with Tween-80",0 of 3
C[n+]1c(/C=C/c2ccc(O)c3ncccc23)[se]c2ccccc21,survivor count,"dose: 22.0 mg/kg/injection, schedule: Q01DX009 (ip), vehicle: saline",3 of 6
same,survivor count,"dose: 34.0 mg/kg/injection, schedule: Q01DX009 (ip), vehicle: saline",0 of 6
same,survivor count,"dose: 80.0 mg/kg/injection, schedule: Q01DX009 (ip), vehicle: saline",0 of 6
same,survivor count,"dose: 120.0 mg/kg/injection, schedule: Q01DX009 (ip), vehicle: saline",0 of 6
CCOC(=O)CN1C(=O)C(Cl)=C(Cl)C1=O,survivor count,"dose: 35.0 mg/kg/injection, schedule: Q01DX009 (ip), vehicle: other",0 of 6
same,survivor count,"dose: 55.0 mg/kg/injection, schedule: Q01DX009 (ip), vehicle: other",0 of 6
same,survivor count,"dose: 80.0 mg/kg/injection, schedule: Q01DX009 (ip), vehicle: other",0 of 6
same,survivor count,"dose: 100.0 mg/kg/injection, schedule: Q04DX003 (ip), vehicle: acetone",0 of 6
same,survivor count,"dose: 200.0 mg/kg/injection, schedule: Q04DX003 (ip), vehicle: acetone",0 of 6
same,survivor count,"dose: 400.0 mg/kg/injection, schedule: Q04DX003 (ip), vehicle: acetone",0 of 6
NC(N)=NCCCCCCCCCCN=C(N)N,survivor count,"dose: 75.0 mg/kg/injection, schedule: Q01DX001 (ip), vehicle: other",0 of 6
same,survivor count,"dose: 150.0 mg/kg/injection, schedule: Q01DX001 (ip), vehicle: other",0 of 6
same,survivor count,"dose: 300.0 mg/kg/injection, schedule: Q01DX001 (ip), vehicle: other",0 of 6
O=C(CCN1CCCCC1)c1ccc([N+](=O)[O-])cc1,survivor count,"dose: 100.0 mg/kg/injection, schedule: Q01DX001 (ip), vehicle: saline",0 of 4
same,survivor count,[1],0 of 4
O=c1cc[n]2c(n1)[O][Hg]2,survivor count,"dose: 20.0 mg/kg/injection, schedule: Q01DX001 (ip), vehicle: carboxymethylcellulose (CMC)",0 of 4
same,survivor count,"dose: 40.0 mg/kg/injection, schedule: Q01DX001 (ip), vehicle: carboxymethylcellulose (CMC)",0 of 4
same,survivor count,"dose: 50.0 mg/kg/injection, schedule: Q01DX001 (ip), vehicle: carboxymethylcellulose (CMC)",0 of 4
same,survivor count,"dose: 80.0 mg/kg/injection, schedule: Q01DX001 (ip), vehicle: carboxymethylcellulose (CMC)",0 of 4
same,survivor count,"dose: 100.0 mg/kg/injection, schedule: Q01DX001 (ip), vehicle: carboxymethylcellulose (CMC)",0 of 4
same,survivor count,"dose: 200.0 mg/kg/injection, schedule: Q01DX001 (ip), vehicle: carboxymethylcellulose (CMC)",0 of 4
same,survivor count,"dose: 400.0 mg/kg/injection, schedule: Q01DX001 (ip), vehicle: carboxymethylcellulose (CMC)",1 of 4
